# Results of single-concentration screens

Mtb cholesterol medium: 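Phenotypic screen: M. tuberculosis growth, cholesterol and DPPC medium, 4 days; the read-out is not stated. Compounds at 50 µM. Direction is inferred from retests: higher values go with more growth inhibition. Of about 69,000 compounds tested this way, about 370 (0.54%) reached 50% or more in at least one test.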
Mtb glucose medium: 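Growth of Mycobacterium tuberculosis over 3 days (7H9 medium with glucose and tyloxapol); the read-out is not stated. Compounds at 50 µM. Higher reads as more growth inhibition (inferred: compounds with an IC50 in retests scored well above the rest). About 69,000 compounds were tested under these conditions; 1.1% (about 760) showed 50% or more at least once.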

The filed quantity is “Percent Effect” (%).
The record does not define 0% and 100%; most values in the screen are far below 50% and negative numbers occur (in some assays of this library far below -100).
This is an unselected part of the compounds tested.
Two or more numbers in one place are separate tests of the same structure; such repeats can differ widely.

| # | SMILES | Mtb cholesterol medium | Mtb glucose medium |
|---|---|---|---|
| 1 | `CSC(C)(C)CNC(=O)NCc1cccc(-n2cncn2)c1` | -8.2 | -32.65 & 3.661 |
| 2 | `Cc1noc(C)c1CN1CCC2(CC1)CCN(C(=O)c1cscn1)C2.O=C(O)C(F)(F)F` | -10.54 | -13.98 & -8.44 |
| 3 | `CC(C)CCNC(=O)c1ccc(Cl)c(NS(C)(=O)=O)c1` | -8.559 | -1.632 |
| 4 | `COc1ccc(CC(=O)N2CCCC(n3cc(C)cn3)C2)cc1F` (configuration not stated) | 11.26 | -7.897 |
| 5 | `CC(C)c1nccn1-c1cccc(C2CCCN(C3CCCC3)C2)n1` (configuration not stated) | -1.713 | 44.14 |
| 6 | `COCCN1CCN(CC2(O)CCCCC2)CC1` | -5.059 | -18.05 |
| 7 | `Cn1ccc(C(=O)N(CC(F)F)c2cccc(Cl)c2)cc1=O` | -16.65 & -5.465 | 7.579 & 1.932 |
| 8 | `CCOc1no[n+]([O-])c1-c1ccccc1` | -6.071 | -7.782 |
| 9 | `CCN1C(=O)CC[C@]12CC[C@@H](NC(=O)c1ccncc1F)CC2.O=C(O)C(F)(F)F` | 12.56 | 11.6 |
| 10 | `Cc1nc2c(c(N3CCC(O)(Cn4ccnc4)CC3)n1)CCNCC2` | 7.063 | 22.32 |
| 11 | `O=C(CCCn1cncn1)N1CCC2(CC1)[C@H](O)C[C@@H]2OCCO` | 13.95 | -2.063 & 17.03 |
| 12 | `COc1ccc(-c2nnc([C@H]3CCN(CC(C)(C)C)C3)o2)cc1` | 19.98 | 27.01 & 16.98 |
| 13 | `Cc1cc(NC(=O)C(C)N2CCN(c3nccs3)CC2)on1` (configuration not stated) | 11.37 | 6.725 |
| 14 | `CN1CCC(C(=O)N2CCC(=Cc3cccc(F)c3)CC2)CC1=O` (configuration not stated) | 13.31 | -12.76 & 4.101 |
| 15 | `Cc1cccc(=O)n1CCC(=O)N(C)Cc1cccc2ncccc12` | -5.548 & -19.55 | -0.7523 & 0.3906 |
| 16 | `Cc1ccc(Cl)cc1S(=O)(=O)NCc1cnc(N(C)C)n1C` | -16.1 | -3.327 & -32.41 |
| 17 | `CC(C)Cc1nc(CCn2cncn2)n(-c2ccc3c(c2)OCCO3)n1` | 19.23 | 0.3632 & -13.04 |
| 18 | `O=C(NCCCO)c1nnsc1-c1ccc(Cl)cc1` | 2.334 | -4.013 |
| 19 | `CCNc1ncc(C(=O)Nc2nnc(N3CCCCC3)[nH]2)s1` | -4.125 | 32.17 |
| 20 | `CCNc1nnc(CCn2nc(C)c(Br)c2C)s1` | 3.867 | 23.54 & 3.895 |
| 21 | `CCc1ccsc1C(=O)N1CCS(=O)(=O)CC1` | 13.23 | 28.91 |
| 22 | `[H][C@@]12CCN(Cc3ccncc3)C[C@@]1([H])O[C@@H](c1nc(C3CC3)cs1)C2` | -3.087 | 11.49 & 17.79 |
| 23 | `CNc1ncc(C(=O)N[C@H]2CN(CCCSC)C[C@@H]2C2CC2)cn1` | -1.37 | 10.13 |
| 24 | `CCOCC(O)CN1CCN(C(=O)c2cnc3n[nH]c(C)c3c2)CC1` (configuration not stated) | -3.546 | -8.622 |
| 25 | `Cc1nnc(CN2CCCC2c2ccc3c(c2)OCCO3)n1C` (configuration not stated) | 2.324 & 12.39 | 21.5 |
| 26 | `O=C(O)c1cccnc1CN1CCCCC1CCc1cccs1` (configuration not stated) | -32.72 | -29.03 & -7.181 |
| 27 | `CCOCCC(=O)N(Cc1ccncc1)C(C)CC` (configuration not stated) | 19.95 | -26.39 |
| 28 | `CN(C)CCn1ccnc1C1CCCN(c2cc(N)ncn2)C1` (configuration not stated) | -54.98 | -45.11 |
| 29 | `CS(=O)(=O)Cc1nc(CN2CCC(C(F)(F)F)CC2)cs1` | 5.282 | -11.58 |
| 30 | `CC1CCN(CC2CCCN(C(=O)Nc3ccccn3)C2)CC1` (configuration not stated) | 2.355 | 16.61 |
| 31 | `CC(C(=O)Nc1ccc(N2CCCCC2)nc1)n1ccnc1` (configuration not stated) | -15.59 | -24.77 & -5.848 |
| 32 | `Fc1cccc(N2CCCC3(CN(Cc4ccncc4)CCO3)C2)c1.O=C(O)C(F)(F)F.O=C(O)C(F)(F)F.O=C(O)C(F)(F)F` (configuration not stated) | -1.271 | 4.907 |
| 33 | `Cc1cc(C)n(C2CN(CC(O)c3ccc4c(c3)OCO4)C2)n1` (configuration not stated) | 2.227 | 14.52 |
| 34 | `Cc1cc(C(=O)N2CCOC(c3nc(C(C)C)n[nH]3)C2)c(C)s1` (configuration not stated) | -4.359 | 24.03 |
| 35 | `CCCS(=O)(=O)N1CCC2(CN(c3ccccc3)C(=O)CN2C)C1.O=C(O)C(F)(F)F` (configuration not stated) | -18.78 | -19.05 |
| 36 | `CCn1c(C2CCNCC2)nn(CCCc2ccccc2)c1=O` | -9.149 | 2.541 |
| 37 | `CC(=O)NCCCc1ncnn1-c1cccc(Cl)c1` | 5.44 | -10.96 |
| 38 | `N#Cc1cccc(C(=O)N2CC(c3nc(-c4cccnc4)no3)C2)c1` | -23.12 | -7.314 & -42.35 |
| 39 | `O=C(O)C(F)(F)F.O=C(O)C(F)(F)F.[H][C@@]12CCCO[C@]1([H])[C@H](NC(=O)C1CC1)CN2Cc1cccc(C)n1` | -6.044 & -6.134 | -25.58 & -7.751 |
| 40 | `O=c1[nH]c(-c2ccncc2)nc2c1CCN(S(=O)(=O)N1CCCC1)C2` | -11.36 | -55.99 & -3.897 |
| 41 | `CN1CC(=O)N(C2CCNCC2)Cc2c(NCC(C)(C)C)ncnc21` | -30.65 | -15.6 |
| 42 | `Cc1nc(C2(NCc3cc(C#N)ccc3F)CCCCC2)no1` | 7.055 | 10.99 |
| 43 | `Cc1nc(-c2nnc[nH]2)sc1C(=O)N1CCCC1Cn1cccn1` (configuration not stated) | 71.76 & -2.795 | -0.2103 |
| 44 | `CS(=O)(=O)CCn1ccc(NCc2ccc(C#N)cc2)n1` | -3.802 | -47.57 |
| 45 | `CC(CNC(=O)c1cn(-c2ccccc2)nn1)Cn1cccn1` (configuration not stated) | -32.12 | -29.96 |
| 46 | `CN1CC[C@H](N(Cc2ccccc2)CC2CC2)C[C@H](O)C1` | 0.002647 | -2.305 |
| 47 | `Cc1noc(C(C)N2CCN(Cc3nc(C)c(C)o3)CC2)n1` (configuration not stated) | 7.536 | 12.72 |
| 48 | `CCn1cc2c(n1)CN(Cc1ccncc1)CC2COCC1CC1.O=C(O)C(F)(F)F.O=C(O)C(F)(F)F` (configuration not stated) | -9.943 | -5.77 |
| 49 | `CCc1nc(CN2CCCN(C(=O)COC)CC2)cs1` | 13.21 | -2.717 |
| 50 | `Cc1cc(=O)n(C)cc1NC(=O)CC1CCC1` | 5.612 | -10.64 |
| 51 | `[H][C@]12CC[C@]([H])(CN(Cc3ccccc3)C1)N(C(=O)CSC)C2` | -7.538 | -5.271 & 0.9413 |
| 52 | `Cn1ccnc1-c1cn(CCCc2csc(N)n2)nn1` | 2.505 | 16.03 |
| 53 | `CC[C@@H](CO)NC(=O)c1coc(COc2ccc(OC)cc2)n1` | 4.539 | 9.992 |
| 54 | `Cc1ccc(NC(=O)CNC(C)CN2CCOCC2)c(F)c1` (configuration not stated) | -15.16 | -19.42 |
| 55 | `COc1ccc(NC(=O)c2ccccc2NCc2ncnn2C)cc1` | -9.158 | -15.58 |
| 56 | `CNC(=O)CN1CCC(NC(=O)CC(C)CCc2ccccc2)CC1` (configuration not stated) | -14.43 | -31.63 |
| 57 | `N#Cc1ccc(N2CCCC3(CCC(=O)N3CC3CC3)CC2)nc1.O=C(O)C(F)(F)F` (configuration not stated) | -27.47 | -21.82 |
| 58 | `CC(C)c1nc(C2CCCN2Cc2ccncc2Cl)no1` (configuration not stated) | -7.579 | 6.685 |
| 59 | `N#Cc1ncn(CCC(=O)Nc2c(Cl)cccc2Cl)n1` | -23.7 | -22.08 |
| 60 | `CCOCc1cnc2n1CCN(C(=O)c1ccoc1C)C2C` (configuration not stated) | -24.61 | -25.07 |
| 61 | `Cc1ccc(Nc2nccc(C3CCN(C(=O)CO)C3)n2)nc1` (configuration not stated) | 5.082 | -3.798 |

Once more, the final 7:

{"smiles": "COc1ccc(NC(=O)c2ccccc2NCc2ncnn2C)cc1", "Mtb cholesterol medium": -9.158, "Mtb glucose medium": -15.58}
{"smiles": "CNC(=O)CN1CCC(NC(=O)CC(C)CCc2ccccc2)CC1", "stereo": "configuration not stated", "Mtb cholesterol medium": -14.43, "Mtb glucose medium": -31.63}
{"smiles": "N#Cc1ccc(N2CCCC3(CCC(=O)N3CC3CC3)CC2)nc1.O=C(O)C(F)(F)F", "stereo": "configuration not stated", "Mtb cholesterol medium": -27.47, "Mtb glucose medium": -21.82}
{"smiles": "CC(C)c1nc(C2CCCN2Cc2ccncc2Cl)no1", "stereo": "configuration not stated", "Mtb cholesterol medium": -7.579, "Mtb glucose medium": 6.685}
{"smiles": "N#Cc1ncn(CCC(=O)Nc2c(Cl)cccc2Cl)n1", "Mtb cholesterol medium": -23.7, "Mtb glucose medium": -22.08}
{"smiles": "CCOCc1cnc2n1CCN(C(=O)c1ccoc1C)C2C", "stereo": "configuration not stated", "Mtb cholesterol medium": -24.61, "Mtb glucose medium": -25.07}
{"smiles": "Cc1ccc(Nc2nccc(C3CCN(C(=O)CO)C3)n2)nc1", "stereo": "configuration not stated", "Mtb cholesterol medium": 5.082, "Mtb glucose medium": -3.798}

Measurements from “University of Dundee, Small-Polar-MMV Screening Library” (2021), ChEMBL document CHEMBL3988442.